Results as given in the supplement of paper PMC12823440, “Inhibitors supercharge kinase turnover through native proteolytic circuits” (Nature, 2025).
Where a name gives a salt, the structure may show the parent alone. The list shows a part of the results. The calls rarely recur for the same compound in another form.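 Kinases, fused to nanoluciferase, were expressed in K562 cells; luminescence was measured every 4 h from 2 to 18 h as percent of control (DMSO = 100%, positive control = 0%). A time point is decreased if signal falls significantly (2 sigma). Hits were called by the authors by a rule that is not shown; the count of time points alone does not decide it.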

Chains of the proteins cited; added tags and fusions are not shown. Lines headed by an entry give the natural chain unless they say otherwise; changes in a name come on top.
UniProt Q05397, whole entry, looked up: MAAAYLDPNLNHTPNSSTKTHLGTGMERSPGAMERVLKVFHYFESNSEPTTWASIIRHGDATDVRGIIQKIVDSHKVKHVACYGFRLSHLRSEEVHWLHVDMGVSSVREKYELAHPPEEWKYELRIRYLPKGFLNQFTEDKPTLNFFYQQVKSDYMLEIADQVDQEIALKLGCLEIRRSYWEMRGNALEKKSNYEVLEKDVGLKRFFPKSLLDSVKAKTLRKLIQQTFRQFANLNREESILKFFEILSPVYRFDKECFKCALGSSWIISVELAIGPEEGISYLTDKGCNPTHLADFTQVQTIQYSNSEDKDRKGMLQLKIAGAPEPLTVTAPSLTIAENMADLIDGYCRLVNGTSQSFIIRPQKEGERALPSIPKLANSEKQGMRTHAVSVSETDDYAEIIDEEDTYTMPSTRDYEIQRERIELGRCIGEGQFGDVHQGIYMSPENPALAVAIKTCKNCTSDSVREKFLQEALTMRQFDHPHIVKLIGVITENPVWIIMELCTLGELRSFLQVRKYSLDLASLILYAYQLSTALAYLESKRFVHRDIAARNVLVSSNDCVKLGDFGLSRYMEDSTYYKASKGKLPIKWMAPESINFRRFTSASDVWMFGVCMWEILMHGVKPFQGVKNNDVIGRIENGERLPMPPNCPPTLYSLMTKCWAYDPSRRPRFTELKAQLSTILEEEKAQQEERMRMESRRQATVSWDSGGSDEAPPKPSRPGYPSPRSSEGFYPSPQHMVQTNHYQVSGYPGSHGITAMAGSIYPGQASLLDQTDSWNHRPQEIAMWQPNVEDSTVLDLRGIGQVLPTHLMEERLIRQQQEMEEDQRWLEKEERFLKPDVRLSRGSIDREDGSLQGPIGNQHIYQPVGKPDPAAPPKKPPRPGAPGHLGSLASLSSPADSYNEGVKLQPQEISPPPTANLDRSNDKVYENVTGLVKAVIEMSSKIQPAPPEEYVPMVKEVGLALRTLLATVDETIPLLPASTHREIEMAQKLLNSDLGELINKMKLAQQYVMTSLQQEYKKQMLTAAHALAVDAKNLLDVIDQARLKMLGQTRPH
UniProt Q14289, whole entry, looked up: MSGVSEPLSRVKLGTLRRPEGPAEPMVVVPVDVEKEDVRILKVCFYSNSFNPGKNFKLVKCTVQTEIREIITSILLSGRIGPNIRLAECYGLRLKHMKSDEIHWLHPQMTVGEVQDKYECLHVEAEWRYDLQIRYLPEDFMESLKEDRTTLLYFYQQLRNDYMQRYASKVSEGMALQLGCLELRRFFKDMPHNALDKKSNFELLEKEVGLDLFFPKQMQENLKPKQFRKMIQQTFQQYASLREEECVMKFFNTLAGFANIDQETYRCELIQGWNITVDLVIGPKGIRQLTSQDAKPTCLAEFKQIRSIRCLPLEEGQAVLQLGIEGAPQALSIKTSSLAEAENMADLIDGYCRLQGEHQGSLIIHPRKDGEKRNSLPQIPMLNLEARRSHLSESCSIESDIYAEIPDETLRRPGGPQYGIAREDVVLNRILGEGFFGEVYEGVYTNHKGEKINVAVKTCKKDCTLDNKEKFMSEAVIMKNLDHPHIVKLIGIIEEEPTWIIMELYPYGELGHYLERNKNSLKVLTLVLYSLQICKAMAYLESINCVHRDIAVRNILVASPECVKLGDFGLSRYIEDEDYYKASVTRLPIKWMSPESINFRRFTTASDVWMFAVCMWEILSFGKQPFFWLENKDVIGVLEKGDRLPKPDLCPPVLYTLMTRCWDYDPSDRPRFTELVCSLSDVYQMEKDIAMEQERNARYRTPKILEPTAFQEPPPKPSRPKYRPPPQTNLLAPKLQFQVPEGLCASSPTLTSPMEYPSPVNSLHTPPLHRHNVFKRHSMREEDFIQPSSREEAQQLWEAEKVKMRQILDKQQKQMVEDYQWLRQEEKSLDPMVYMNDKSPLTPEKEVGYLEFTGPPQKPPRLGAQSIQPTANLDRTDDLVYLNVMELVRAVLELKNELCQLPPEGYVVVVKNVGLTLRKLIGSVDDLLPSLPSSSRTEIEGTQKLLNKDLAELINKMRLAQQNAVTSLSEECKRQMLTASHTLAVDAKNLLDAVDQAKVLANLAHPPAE
UniProt P07949, whole entry, looked up: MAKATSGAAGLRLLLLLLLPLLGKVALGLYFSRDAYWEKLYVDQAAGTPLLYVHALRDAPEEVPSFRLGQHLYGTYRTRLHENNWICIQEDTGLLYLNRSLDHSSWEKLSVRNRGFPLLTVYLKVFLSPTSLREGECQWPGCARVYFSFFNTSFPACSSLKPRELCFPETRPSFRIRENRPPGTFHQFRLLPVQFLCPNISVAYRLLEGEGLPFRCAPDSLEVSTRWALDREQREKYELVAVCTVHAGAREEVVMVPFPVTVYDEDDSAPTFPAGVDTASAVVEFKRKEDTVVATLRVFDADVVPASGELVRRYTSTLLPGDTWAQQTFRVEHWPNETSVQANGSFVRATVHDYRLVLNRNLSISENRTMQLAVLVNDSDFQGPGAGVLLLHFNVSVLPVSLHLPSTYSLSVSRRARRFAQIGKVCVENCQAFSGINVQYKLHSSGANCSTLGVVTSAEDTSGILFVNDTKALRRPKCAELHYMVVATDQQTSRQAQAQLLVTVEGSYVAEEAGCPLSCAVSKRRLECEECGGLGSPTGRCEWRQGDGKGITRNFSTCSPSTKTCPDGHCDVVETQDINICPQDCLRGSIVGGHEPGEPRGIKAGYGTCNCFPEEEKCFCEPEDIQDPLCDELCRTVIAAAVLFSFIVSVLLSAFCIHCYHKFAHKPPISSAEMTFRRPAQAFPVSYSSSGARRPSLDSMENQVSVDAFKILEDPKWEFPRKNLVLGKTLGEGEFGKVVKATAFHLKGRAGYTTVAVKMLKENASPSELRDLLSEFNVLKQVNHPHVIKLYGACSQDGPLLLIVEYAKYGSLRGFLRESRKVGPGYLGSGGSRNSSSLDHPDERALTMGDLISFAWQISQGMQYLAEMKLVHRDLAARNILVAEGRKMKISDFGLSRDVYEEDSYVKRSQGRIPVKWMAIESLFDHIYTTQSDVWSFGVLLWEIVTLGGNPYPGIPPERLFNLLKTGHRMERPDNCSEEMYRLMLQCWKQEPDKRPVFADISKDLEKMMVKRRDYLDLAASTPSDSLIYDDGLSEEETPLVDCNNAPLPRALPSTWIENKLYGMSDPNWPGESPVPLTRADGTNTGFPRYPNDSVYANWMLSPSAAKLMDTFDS
UniProt P07949, whole entry M918T, looked up: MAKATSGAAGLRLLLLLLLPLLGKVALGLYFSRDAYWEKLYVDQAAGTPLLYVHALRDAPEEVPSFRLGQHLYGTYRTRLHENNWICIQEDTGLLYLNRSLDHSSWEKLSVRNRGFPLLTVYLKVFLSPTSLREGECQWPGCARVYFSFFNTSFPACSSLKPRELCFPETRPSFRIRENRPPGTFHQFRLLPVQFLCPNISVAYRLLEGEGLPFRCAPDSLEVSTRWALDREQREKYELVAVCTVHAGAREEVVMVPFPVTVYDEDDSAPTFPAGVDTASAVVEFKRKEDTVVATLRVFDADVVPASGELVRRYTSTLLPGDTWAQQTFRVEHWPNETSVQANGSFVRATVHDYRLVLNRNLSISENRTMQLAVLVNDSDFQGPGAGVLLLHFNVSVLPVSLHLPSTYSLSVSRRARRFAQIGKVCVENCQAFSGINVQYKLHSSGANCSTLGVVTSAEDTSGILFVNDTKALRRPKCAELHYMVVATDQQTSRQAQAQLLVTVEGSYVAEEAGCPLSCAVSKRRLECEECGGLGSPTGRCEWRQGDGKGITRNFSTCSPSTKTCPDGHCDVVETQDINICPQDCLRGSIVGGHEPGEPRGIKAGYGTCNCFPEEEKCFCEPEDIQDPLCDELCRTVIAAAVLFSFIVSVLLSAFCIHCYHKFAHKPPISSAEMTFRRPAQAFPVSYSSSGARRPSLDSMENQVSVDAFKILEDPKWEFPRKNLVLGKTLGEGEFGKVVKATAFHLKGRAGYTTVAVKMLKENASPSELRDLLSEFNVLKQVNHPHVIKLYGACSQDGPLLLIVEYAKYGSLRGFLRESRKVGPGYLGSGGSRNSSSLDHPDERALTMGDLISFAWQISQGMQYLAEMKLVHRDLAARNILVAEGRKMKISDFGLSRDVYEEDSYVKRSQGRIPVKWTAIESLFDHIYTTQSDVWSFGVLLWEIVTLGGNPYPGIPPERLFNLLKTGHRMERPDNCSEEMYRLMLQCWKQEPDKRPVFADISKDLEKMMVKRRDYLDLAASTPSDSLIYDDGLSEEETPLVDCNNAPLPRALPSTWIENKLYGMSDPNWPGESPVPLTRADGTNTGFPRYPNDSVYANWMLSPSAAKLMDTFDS
UniProt Q9BRS2: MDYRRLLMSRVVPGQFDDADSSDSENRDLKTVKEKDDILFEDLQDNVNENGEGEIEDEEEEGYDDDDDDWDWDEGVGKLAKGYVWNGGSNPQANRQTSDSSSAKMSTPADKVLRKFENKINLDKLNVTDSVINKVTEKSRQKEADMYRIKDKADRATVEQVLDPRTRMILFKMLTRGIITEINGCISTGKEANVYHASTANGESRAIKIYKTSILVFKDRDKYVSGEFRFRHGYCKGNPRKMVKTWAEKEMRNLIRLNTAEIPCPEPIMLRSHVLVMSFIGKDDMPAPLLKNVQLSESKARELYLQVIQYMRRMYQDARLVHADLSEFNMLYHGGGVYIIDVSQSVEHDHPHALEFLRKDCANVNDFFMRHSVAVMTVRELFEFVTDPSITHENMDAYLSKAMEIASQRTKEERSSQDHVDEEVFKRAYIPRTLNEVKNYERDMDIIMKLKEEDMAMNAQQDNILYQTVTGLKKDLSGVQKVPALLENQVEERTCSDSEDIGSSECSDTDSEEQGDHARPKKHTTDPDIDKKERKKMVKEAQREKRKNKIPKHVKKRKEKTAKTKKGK
UniProt Q13546: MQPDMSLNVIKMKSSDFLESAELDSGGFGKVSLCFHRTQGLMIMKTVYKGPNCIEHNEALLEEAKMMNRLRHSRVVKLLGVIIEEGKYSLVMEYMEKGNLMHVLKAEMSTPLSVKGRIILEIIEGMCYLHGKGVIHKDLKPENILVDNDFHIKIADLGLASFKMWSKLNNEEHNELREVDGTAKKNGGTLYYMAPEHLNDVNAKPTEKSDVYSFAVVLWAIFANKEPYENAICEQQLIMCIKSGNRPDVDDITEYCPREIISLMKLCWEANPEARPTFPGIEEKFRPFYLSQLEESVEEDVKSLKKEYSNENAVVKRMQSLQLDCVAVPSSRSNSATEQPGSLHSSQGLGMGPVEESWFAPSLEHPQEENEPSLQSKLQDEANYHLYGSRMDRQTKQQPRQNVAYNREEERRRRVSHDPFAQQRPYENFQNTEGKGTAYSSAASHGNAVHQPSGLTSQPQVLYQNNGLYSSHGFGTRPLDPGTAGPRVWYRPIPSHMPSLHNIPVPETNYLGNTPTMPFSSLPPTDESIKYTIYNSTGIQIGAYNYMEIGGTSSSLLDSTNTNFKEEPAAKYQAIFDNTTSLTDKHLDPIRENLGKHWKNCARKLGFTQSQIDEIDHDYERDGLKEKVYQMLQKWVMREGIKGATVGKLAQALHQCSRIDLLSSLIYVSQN

Columns and labels:
Experiment in all cases: number of time points (of 5) at which kinase-Nluc abundance scored as decreased, DMSO-normalised (count); higher = more persistent destabilization
Conditions in all cases: K562; 2-18 h
PRKCA = PRKCA (UniProt P17252)
PTK2 = PTK2 (UniProt Q05397)
PTK2B = PTK2B (UniProt Q14289)
RAF1 = RAF1 (UniProt P04049)
[1] = target: RAF1_S257L (clone: RAF1_mut) (UniProt P04049)
RET = RET (UniProt P07949)
[2] = target: RET_M918T (clone: RET_mut) (UniProt P07949)
RIOK1 = RIOK1 (UniProt Q9BRS2)
RIPK1 = RIPK1 (UniProt Q13546)
RIPK2 = RIPK2 (UniProt O43353)

Row | SMILES | number of time points (PRKCA) | number of time points (PTK2) | number of time points (PTK2B) | number of time points (RAF1) | number of time points [1] | number of time points (RET) | number of time points [2] | number of time points (RIOK1) | number of time points (RIPK1) | number of time points (RIPK2)
1 | CN(C)C(=O)c1cc2cnc(Nc3ccc(NC(=O)C4(C(=O)Nc5ccc(F)cc5)CC4)cc3)nc2n1C1CCCC1 (2 µM) | 0 | 0 | 0 | 0 | 1 | 0 | 0 | 0 | 0 | 0
2 | CNC[C@@H](NC(=O)c1ccc(-c2nc([C@H]3CC[C@H](O)[C@@H](F)C3)cnc2N)cc1F)c1cc(F)cc(Br)c1 [Rineterkib] (10 µM) | 0 | 0 | 0 | 0 | 0 | 0 | 0 | 0 | 0 | 0
3 | COc1c(OCCCN2CCOCC2)ccc2c3n(c(=NC(=O)c4cnc(N)nc4)nc12)CCN3 [Copanlisib (dihydrochloride)] (10 µM) | 0 | 3 | 0 | 3 | 4 | 4 | 4 | 2 | 3 | 3
4 | C[C@H](Nc1ccc2c(c1)OCCn1cc(N3C(=O)OC[C@H]3C(F)F)nc1-2)C(N)=O (10 µM) | 0 | 0 | 0 | 0 | 0 | 0 | 0 | 0 | 0 | 0
5 | Oc1ccc2ccccc2c1SSc1c(O)ccc2ccccc12 (10 µM) | 0 | 0 | 0 | 0 | 0 | 0 | 0 | 0 | 0 | 0
6 | CC(C)(O)c1cc2nc(-c3cnc(N)nc3)nc(N3CCOCC3)c2s1 (2.5 µM) | 0 | 2 | 0 | 3 | 2 | 0 | 2 | 0 | 3 | 3
7 | CCn1c(-c2nonc2N)nc2c(C#CCO)ncc(OCCCN)c21 [AKT Kinase Inhibitor] (10 µM) | 0 | 0 | 0 | 0 | 0 | 0 | 0 | 0 | 0 | 0
8 | COc1cc2nccc(Oc3ccc(NC(=O)Nc4ccc(F)cc4F)c(F)c3)c2cc1OC (10 µM) | 0 | 5 | 0 | 0 | 0 | 0 | 0 | 0 | 0 | 0
9 | C[C@@H]1CC[C@]2(C(=O)O)CC[C@]3(C)C(=CC[C@@H]4[C@@]5(C)CC[C@H](O)[C@@](C)(CO)[C@@H]5CC[C@]43C)[C@@H]2[C@]1(C)O [Rotundic acid] (10 µM) | 0 | 0 | 0 | 0 | 0 | 0 | 0 | 0 | 0 | 0
10 | O=S(=O)(N=Cc1c(O)ccc2ccccc12)c1cccs1 (10 µM) | 0 | 0 | 0 | 0 | 0 | 0 | 0 | 0 | 0 | 0
11 | O=C1c2c(O)cc(O)cc2O[C@H](c2cc(O)c(O)c(O)c2)[C@H]1O [Dihydromyricetin] (10 µM) | 0 | 0 | 0 | 0 | 0 | 0 | 0 | 0 | 0 | 0
12 | COc1cc(-c2cc(-c3cccc(O)c3)cnc2N)cc(OC)c1OC (2.5 µM) | 0 | 2 | 0 | 2 | 3 | 1 | 0 | 2 | 2 | 2
13 | CNC(=O)Nc1cc(Oc2cncc(C)c2)c(-c2ccc(OCC(C)(C)O)nc2)cn1 (2.5 µM) | 0 | 0 | 0 | 0 | 0 | 0 | 0 | 0 | 0 | 0
14 | CC(=O)Nc1nc(C)c(-c2cc3c(c(S(C)(=O)=O)c2)C(=O)N([C@@H](C)C2CC2)C3)s1 (2.5 µM) | 0 | 0 | 0 | 0 | 0 | 0 | 0 | 0 | 0 | 0
15 | CS(=O)(=O)N1CCN(Cc2cn3cc(-c4cnc(N)nc4)nc(N4CCOCC4)c3n2)CC1 (10 µM) | 0 | 3 | 0 | 2 | 0 | 0 | 0 | 0 | 0 | 0
16 | C[C@H](CC[C@@H](O)C(C)(C)O)[C@H]1CC[C@@]2(C)[C@@H]3CC=C4[C@@H](CC[C@H](O)C4(C)C)[C@]3(C)[C@H](O)C[C@]12C [Mogrol] (10 µM) | 0 | 0 | 0 | 0 | 0 | 0 | 0 | 0 | 0 | 0
17 | CCCC[C@H](CO)Nc1nc(NC)ncc1OC [Interferon receptor inducer-1] (10 µM) | 0 | 0 | 0 | 0 | 0 | 0 | 0 | 0 | 0 | 0
18 | COC[C@H]1Cn2cc(-c3nc(Nc4ccnn4C)ncc3C)nc2C(=O)N1Cc1ccc(F)c(F)c1 (10 µM) | 0 | 0 | 0 | 0 | 0 | 0 | 0 | 0 | 0 | 0

Row | SMILES | number of time points (PRKCA) | number of time points (PTK2) | number of time points (PTK2B) | number of time points (RAF1) | number of time points [1] | number of time points (RET) | number of time points [2] | number of time points (RIOK1) | number of time points (RIPK1) | number of time points (RIPK2)
19 | CC(C)(O)c1cc(Nc2cc(Oc3cn(C4CC4)nc3C3CCOCC3)ccn2)ccn1 (10 µM) | 0 | 0 | 0 | 0 | 0 | 0 | 0 | 0 | 0 | 0
20 | Cc1cc(F)c(Nc2ncnc3cc(OCc4ccccc4)ccc23)cc1O (10 µM) | 0 | 0 | 0 | 0 | 0 | 0 | 0 | 0 | 0 | 0
21 | Cc1cccc(-c2[nH]c(C(C)(C)C)nc2-c2ccc3c(c2)OCO3)n1 (2.5 µM) | 0 | 0 | 0 | 0 | 0 | 0 | 0 | 0 | 0 | 0
22 | Cn1cc(-c2ccc3nnc(Sc4ccc5nn(C)cc5c4)n3n2)cn1 [c-Met inhibitor 1] (10 µM) | 0 | 0 | 0 | 0 | 0 | 0 | 0 | 0 | 0 | 0
23 | CN(C)CCCn1cc(C2=C(c3c[nH]c4ccccc34)C(=O)NC2=O)c2ccccc21 [Bisindolylmaleimide I] (2.5 µM) | 0 | 0 | 0 | 0 | 0 | 0 | 0 | 0 | 0 | 0
24 | COc1cccc(Nc2ncnn3ccc(CN4CC[C@@H](N)[C@H](O)C4)c23)c1 (2.5 µM) | 0 | 1 | 0 | 3 | 3 | 0 | 0 | 0 | 2 | 2
25 | C=CCN(/C=C1/C(=O)O[C@H](COC)[C@@]2(C)C1=C(O)C(=O)C1=C2[C@H](OC(C)=O)C[C@]2(C)C(=O)CC[C@@H]12)CC=C [Sonolisib] (2.5 µM) | 0 | 2 | 0 | 0 | 0 | 0 | 0 | 0 | 0 | 0
26 | Clc1ccc(Nc2cccc(-c3cn[nH]c3)c2)cc1 (10 µM) | 0 | 0 | 0 | 0 | 0 | 0 | 0 | 0 | 0 | 0
27 | CN(C/C=C/C(=O)Nc1ccc(C(=O)Nc2cccc(Nc3ncc(Cl)c(-c4c[nH]c5ccccc45)n3)c2)cc1)CCCNC(=O)NCCOCCOCCOCCNC(=O)CCCC[C@@H]1SC[C@@H]2NC(=O)N[C@@H]21 (2.5 µM) | 0 | 3 | 1 | 1 | 0 | 2 | 0 | 1 | 3 | 3
28 | O=C(CCc1ccc2n1[B-](F)(F)[N+]1=C(c3ccc[nH]3)C=CC1=C2)ON1C(=O)CCC1=O [Py-BODIPY-NHS ester] (2.5 µM) | 0 | 0 | 0 | 0 | 0 | 0 | 0 | 0 | 0 | 0
29 | O=c1cc(N2CCOCC2)oc2c1ccc1ccccc12 (2 µM) | 0 | 0 | 0 | 0 | 0 | 0 | 0 | 0 | 0 | 0
30 | C=CC(=O)N1CCN(c2nc(OC[C@@H]3CCCN3C)nc3c2CCN(c2cccc4cccc(C)c24)C3)C[C@@H]1CC#N (2.5 µM) | 0 | 0 | 0 | 0 | 0 | 0 | 0 | 0 | 0 | 0
31 | COC(=O)/C=C/c1ccc(O)c(OC)c1 [Ferulic acid methyl ester] (10 µM) | 0 | 0 | 0 | 0 | 0 | 0 | 0 | 0 | 0 | 0
32 | O=C1C(=Cc2ccc(O)c(O)c2)Oc2ccccc21 (2.5 µM) | 0 | 0 | 0 | 0 | 0 | 0 | 0 | 0 | 0 | 0
33 | CC(C)(C)S(=O)(=O)c1ccc2nccc(Nc3n[nH]c4ccc(F)cc34)c2c1 (10 µM) | 0 | 0 | 0 | 0 | 0 | 0 | 0 | 0 | 0 | 0
34 | Cc1cc(=O)[nH]c(=S)[nH]1 [Methylthiouracil] (10 µM) | 0 | 0 | 0 | 0 | 0 | 0 | 0 | 0 | 0 | 0
35 | Cc1c(C(=O)Nc2ccc(Oc3ccnc4cc(OCC(C)(C)O)ccc34)c(F)c2)c(=O)n(-c2ccccc2)n1C [Ningetinib Tosylate] (10 µM) | 0 | 2 | 0 | 2 | 2 | 0 | 0 | 0 | 0 | 0
36 | COC(=O)[C@]1(C)CC[C@]2(C(=O)O[C@@H]3O[C@H](CO)[C@@H](O)[C@H](O)[C@H]3O)CC[C@]3(C)C(=CC[C@@H]4[C@@]5(C)C[C@H](O)[C@H](O[C@@H]6OC[C@@H](O[C@@H]7O[C@H](CO)[C@@H](O)[C@H](O)[C@H]7O)[C@H](O)[C@H]6O)[C@@](C)(CO)C5CC[C@]43C)[C@H]2C1 (stereo not given in full) [Esculentoside H] (10 µM) | 0 | 0 | 1 | 0 | 0 | 0 | 0 | 0 | 0 | 0

Molecules shown so far containing an NH in an aromatic ring:
Row | SMILES | number of time points (PRKCA) | number of time points (PTK2) | number of time points (PTK2B) | number of time points (RAF1) | number of time points [1] | number of time points (RET) | number of time points [2] | number of time points (RIOK1) | number of time points (RIPK1) | number of time points (RIPK2)
21 | Cc1cccc(-c2[nH]c(C(C)(C)C)nc2-c2ccc3c(c2)OCO3)n1 (2.5 µM) | 0 | 0 | 0 | 0 | 0 | 0 | 0 | 0 | 0 | 0
23 | CN(C)CCCn1cc(C2=C(c3c[nH]c4ccccc34)C(=O)NC2=O)c2ccccc21 [Bisindolylmaleimide I] (2.5 µM) | 0 | 0 | 0 | 0 | 0 | 0 | 0 | 0 | 0 | 0
26 | Clc1ccc(Nc2cccc(-c3cn[nH]c3)c2)cc1 (10 µM) | 0 | 0 | 0 | 0 | 0 | 0 | 0 | 0 | 0 | 0
27 | CN(C/C=C/C(=O)Nc1ccc(C(=O)Nc2cccc(Nc3ncc(Cl)c(-c4c[nH]c5ccccc45)n3)c2)cc1)CCCNC(=O)NCCOCCOCCOCCNC(=O)CCCC[C@@H]1SC[C@@H]2NC(=O)N[C@@H]21 (2.5 µM) | 0 | 3 | 1 | 1 | 0 | 2 | 0 | 1 | 3 | 3
28 | O=C(CCc1ccc2n1[B-](F)(F)[N+]1=C(c3ccc[nH]3)C=CC1=C2)ON1C(=O)CCC1=O [Py-BODIPY-NHS ester] (2.5 µM) | 0 | 0 | 0 | 0 | 0 | 0 | 0 | 0 | 0 | 0
33 | CC(C)(C)S(=O)(=O)c1ccc2nccc(Nc3n[nH]c4ccc(F)cc34)c2c1 (10 µM) | 0 | 0 | 0 | 0 | 0 | 0 | 0 | 0 | 0 | 0
34 | Cc1cc(=O)[nH]c(=S)[nH]1 [Methylthiouracil] (10 µM) | 0 | 0 | 0 | 0 | 0 | 0 | 0 | 0 | 0 | 0
